Experimental data as given in article PMC9932127.
Results are given in words; binding and its absence hold for the method and conditions named. In cells and extracts the contact can be indirect. Some results given as binding are weak or reduced against the parent protein; the word gives no strength.

The chains behind the UniProt entries cited, without tags or fusion partners.
UniProt Q5TDH0: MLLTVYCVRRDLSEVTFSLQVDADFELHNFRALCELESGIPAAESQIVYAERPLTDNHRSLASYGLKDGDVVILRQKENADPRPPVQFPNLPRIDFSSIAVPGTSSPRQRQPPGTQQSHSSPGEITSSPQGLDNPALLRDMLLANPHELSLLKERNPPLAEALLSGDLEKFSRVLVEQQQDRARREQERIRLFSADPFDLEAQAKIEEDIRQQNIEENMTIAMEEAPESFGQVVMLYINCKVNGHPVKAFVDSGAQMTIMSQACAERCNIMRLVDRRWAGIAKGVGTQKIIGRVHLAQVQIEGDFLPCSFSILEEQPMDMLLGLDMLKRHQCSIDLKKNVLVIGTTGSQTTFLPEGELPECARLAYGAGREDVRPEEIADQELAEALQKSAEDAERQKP

Biological target: full-length DDI2 tagged with FLAG or HA (UniProt Q5TDH0)
Experiment: co-IP; FLAG- and HA-tagged DDI2 (full length or ΔUBL) co-expressed, precipitated with FLAG-M2 affinity gel; Triton lysis buffer, 4°C 2 h, washes with 500 mM NaCl; cells with or without amino acid depletion

binding: binds
Substance: full-length DDI2 tagged with FLAG or HA (from UniProt Q5TDH0 1-399)
